Drawing on PMC314469, “Protein Interaction Networks by Proteome Peptide Scanning” (PLoS Biology, 2004), this text covers binding for five molecules.

The chains behind the UniProt entries cited, without tags or fusion partners.
UniProt P29311: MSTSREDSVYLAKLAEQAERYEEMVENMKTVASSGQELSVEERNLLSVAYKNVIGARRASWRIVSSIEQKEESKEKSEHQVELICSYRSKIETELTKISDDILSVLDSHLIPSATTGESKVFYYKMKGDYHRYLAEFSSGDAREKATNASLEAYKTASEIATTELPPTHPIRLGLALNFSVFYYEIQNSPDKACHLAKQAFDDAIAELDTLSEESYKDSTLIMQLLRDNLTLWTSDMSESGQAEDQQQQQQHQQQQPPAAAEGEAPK

No constants are given. Whether binding was seen depends on the method and setting. In cells and extracts the contact can be indirect. Some entries that bind do so weakly or less than the wild type. For part of these data: Where a sequence is shown, tags or fusion partners need not be part of it.

Experiment [1] deals with T1, GST-Abp1 SH3 domain (S. cerevisiae) (UniProt P15891).
T1 sequence: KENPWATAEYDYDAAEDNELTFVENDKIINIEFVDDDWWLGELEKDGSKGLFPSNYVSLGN
Briefly: pull-down; 100 μg GST–Abp1SH3 bound to glutathione–sepharose incubated 2 h at 4°C with extract of yeast expressing the TAP-tagged protein, IPP-150 buffer (10 mM Tris–HCl pH 8.0, 150 mM NaCl, 0.1% NP-40); blot with PAP antibody; only the target purified.

The target of experiment [2] is T2, GST-Abp1 SH3 domain (S. cerevisiae), P15891.
T2 chain: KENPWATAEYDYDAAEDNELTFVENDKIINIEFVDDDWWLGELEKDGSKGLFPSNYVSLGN
Described as above. To be noted: remark: other sources report otherwise.

The target of experiment [3] is TAP-tagged Bmh1 (S. cerevisiae) (UniProt P29311). Briefly: co-IP; extract of yeast expressing the TAP-tagged protein on IgG–sepharose 2 h at 4°C, washed in IPP-150, released with TEV protease; blot with anti-Abp1 antibody.
Experiment [4] deals with T3, TAP-tagged Prk1 (S. cerevisiae) (UniProt P40494).
T3 sequence: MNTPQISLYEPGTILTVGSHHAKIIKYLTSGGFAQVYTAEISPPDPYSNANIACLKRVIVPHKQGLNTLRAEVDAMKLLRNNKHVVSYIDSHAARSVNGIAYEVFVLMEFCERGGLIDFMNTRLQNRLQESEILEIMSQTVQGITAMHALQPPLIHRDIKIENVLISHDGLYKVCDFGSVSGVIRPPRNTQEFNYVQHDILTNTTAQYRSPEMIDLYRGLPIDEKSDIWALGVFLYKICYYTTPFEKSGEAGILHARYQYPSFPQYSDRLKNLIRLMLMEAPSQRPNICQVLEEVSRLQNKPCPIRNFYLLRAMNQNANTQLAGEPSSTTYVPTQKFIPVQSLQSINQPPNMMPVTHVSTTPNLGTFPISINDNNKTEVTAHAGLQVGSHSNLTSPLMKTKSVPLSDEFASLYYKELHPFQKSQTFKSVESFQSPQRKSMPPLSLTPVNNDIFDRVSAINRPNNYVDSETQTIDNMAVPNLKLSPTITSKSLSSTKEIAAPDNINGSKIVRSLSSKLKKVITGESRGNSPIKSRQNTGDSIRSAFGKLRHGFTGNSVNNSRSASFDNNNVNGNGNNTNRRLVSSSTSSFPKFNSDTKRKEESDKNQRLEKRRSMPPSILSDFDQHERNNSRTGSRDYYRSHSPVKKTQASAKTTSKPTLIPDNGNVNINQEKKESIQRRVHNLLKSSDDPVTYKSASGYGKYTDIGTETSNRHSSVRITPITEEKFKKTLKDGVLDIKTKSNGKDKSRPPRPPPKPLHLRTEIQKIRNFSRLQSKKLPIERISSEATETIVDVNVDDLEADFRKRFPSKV
The experiment is described as above.

In experiment [5] the target is T4, TAP-tagged Scp1 (S. cerevisiae) (UniProt Q08873).
T4 sequence: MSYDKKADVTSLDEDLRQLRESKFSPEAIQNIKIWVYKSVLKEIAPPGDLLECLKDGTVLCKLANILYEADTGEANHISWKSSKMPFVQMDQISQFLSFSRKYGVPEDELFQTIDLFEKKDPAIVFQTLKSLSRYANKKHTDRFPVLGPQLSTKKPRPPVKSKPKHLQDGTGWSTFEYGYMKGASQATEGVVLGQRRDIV
The description is as above.

Experiment [6] addresses T5, TAP-tagged Yir003w (S. cerevisiae) (UniProt P40563).
T5 sequence: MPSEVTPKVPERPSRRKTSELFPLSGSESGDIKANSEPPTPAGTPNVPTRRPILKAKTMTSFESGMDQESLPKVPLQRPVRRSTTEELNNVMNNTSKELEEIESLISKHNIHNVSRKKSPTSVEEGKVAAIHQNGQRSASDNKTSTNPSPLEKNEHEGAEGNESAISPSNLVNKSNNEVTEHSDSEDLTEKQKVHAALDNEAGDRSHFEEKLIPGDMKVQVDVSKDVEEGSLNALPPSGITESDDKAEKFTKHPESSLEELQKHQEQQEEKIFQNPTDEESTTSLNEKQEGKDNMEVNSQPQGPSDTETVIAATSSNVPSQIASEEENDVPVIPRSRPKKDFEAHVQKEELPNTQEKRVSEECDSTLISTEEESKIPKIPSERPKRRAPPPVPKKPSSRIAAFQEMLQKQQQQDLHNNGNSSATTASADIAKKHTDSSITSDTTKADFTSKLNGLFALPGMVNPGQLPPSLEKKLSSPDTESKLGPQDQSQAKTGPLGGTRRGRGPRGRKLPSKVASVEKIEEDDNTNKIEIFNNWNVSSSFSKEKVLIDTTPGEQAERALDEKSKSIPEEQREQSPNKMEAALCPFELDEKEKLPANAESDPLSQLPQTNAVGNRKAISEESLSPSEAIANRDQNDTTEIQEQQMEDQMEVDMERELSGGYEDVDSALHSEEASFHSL
The description is as above.

Experiment [7] deals with T6, TAP-tagged Ynl094w (S. cerevisiae) (UniProt P53933).
T6 sequence: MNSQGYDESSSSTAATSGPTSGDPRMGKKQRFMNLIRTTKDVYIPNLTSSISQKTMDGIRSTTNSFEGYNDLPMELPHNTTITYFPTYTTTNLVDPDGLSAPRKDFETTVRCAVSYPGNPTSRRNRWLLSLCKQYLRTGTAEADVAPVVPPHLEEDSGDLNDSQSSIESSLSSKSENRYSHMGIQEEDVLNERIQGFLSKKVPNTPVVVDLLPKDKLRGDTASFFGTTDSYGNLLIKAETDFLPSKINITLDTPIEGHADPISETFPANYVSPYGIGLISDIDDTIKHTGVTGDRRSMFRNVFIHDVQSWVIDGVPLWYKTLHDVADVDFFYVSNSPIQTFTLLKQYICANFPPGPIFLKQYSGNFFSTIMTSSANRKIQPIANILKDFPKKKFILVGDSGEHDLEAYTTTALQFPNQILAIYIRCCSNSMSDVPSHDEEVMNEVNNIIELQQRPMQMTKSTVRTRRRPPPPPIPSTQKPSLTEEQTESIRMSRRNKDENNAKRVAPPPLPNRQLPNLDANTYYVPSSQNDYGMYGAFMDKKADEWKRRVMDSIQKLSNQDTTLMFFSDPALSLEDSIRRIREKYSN
The experiment is described as above.

B1: TAP-tagged Prk1 (protein, UniProt P40494 1-810)
chain: MNTPQISLYEPGTILTVGSHHAKIIKYLTSGGFAQVYTAEISPPDPYSNANIACLKRVIVPHKQGLNTLRAEVDAMKLLRNNKHVVSYIDSHAARSVNGIAYEVFVLMEFCERGGLIDFMNTRLQNRLQESEILEIMSQTVQGITAMHALQPPLIHRDIKIENVLISHDGLYKVCDFGSVSGVIRPPRNTQEFNYVQHDILTNTTAQYRSPEMIDLYRGLPIDEKSDIWALGVFLYKICYYTTPFEKSGEAGILHARYQYPSFPQYSDRLKNLIRLMLMEAPSQRPNICQVLEEVSRLQNKPCPIRNFYLLRAMNQNANTQLAGEPSSTTYVPTQKFIPVQSLQSINQPPNMMPVTHVSTTPNLGTFPISINDNNKTEVTAHAGLQVGSHSNLTSPLMKTKSVPLSDEFASLYYKELHPFQKSQTFKSVESFQSPQRKSMPPLSLTPVNNDIFDRVSAINRPNNYVDSETQTIDNMAVPNLKLSPTITSKSLSSTKEIAAPDNINGSKIVRSLSSKLKKVITGESRGNSPIKSRQNTGDSIRSAFGKLRHGFTGNSVNNSRSASFDNNNVNGNGNNTNRRLVSSSTSSFPKFNSDTKRKEESDKNQRLEKRRSMPPSILSDFDQHERNNSRTGSRDYYRSHSPVKKTQASAKTTSKPTLIPDNGNVNINQEKKESIQRRVHNLLKSSDDPVTYKSASGYGKYTDIGTETSNRHSSVRITPITEEKFKKTLKDGVLDIKTKSNGKDKSRPPRPPPKPLHLRTEIQKIRNFSRLQSKKLPIERISSEATETIVDVNVDDLEADFRKRFPSKV
As for B1, the binding result in experiment [1] is recorded as “binds”.

B2: TAP-tagged Ynl094w (protein, UniProt P53933 1-587)
chain: MNSQGYDESSSSTAATSGPTSGDPRMGKKQRFMNLIRTTKDVYIPNLTSSISQKTMDGIRSTTNSFEGYNDLPMELPHNTTITYFPTYTTTNLVDPDGLSAPRKDFETTVRCAVSYPGNPTSRRNRWLLSLCKQYLRTGTAEADVAPVVPPHLEEDSGDLNDSQSSIESSLSSKSENRYSHMGIQEEDVLNERIQGFLSKKVPNTPVVVDLLPKDKLRGDTASFFGTTDSYGNLLIKAETDFLPSKINITLDTPIEGHADPISETFPANYVSPYGIGLISDIDDTIKHTGVTGDRRSMFRNVFIHDVQSWVIDGVPLWYKTLHDVADVDFFYVSNSPIQTFTLLKQYICANFPPGPIFLKQYSGNFFSTIMTSSANRKIQPIANILKDFPKKKFILVGDSGEHDLEAYTTTALQFPNQILAIYIRCCSNSMSDVPSHDEEVMNEVNNIIELQQRPMQMTKSTVRTRRRPPPPPIPSTQKPSLTEEQTESIRMSRRNKDENNAKRVAPPPLPNRQLPNLDANTYYVPSSQNDYGMYGAFMDKKADEWKRRVMDSIQKLSNQDTTLMFFSDPALSLEDSIRRIREKYSN
In the case of B2, the binding entry in experiment [1] is listed as “binds”.

B3: TAP-tagged Yir003w, P40563 1-679 (protein)
chain: MPSEVTPKVPERPSRRKTSELFPLSGSESGDIKANSEPPTPAGTPNVPTRRPILKAKTMTSFESGMDQESLPKVPLQRPVRRSTTEELNNVMNNTSKELEEIESLISKHNIHNVSRKKSPTSVEEGKVAAIHQNGQRSASDNKTSTNPSPLEKNEHEGAEGNESAISPSNLVNKSNNEVTEHSDSEDLTEKQKVHAALDNEAGDRSHFEEKLIPGDMKVQVDVSKDVEEGSLNALPPSGITESDDKAEKFTKHPESSLEELQKHQEQQEEKIFQNPTDEESTTSLNEKQEGKDNMEVNSQPQGPSDTETVIAATSSNVPSQIASEEENDVPVIPRSRPKKDFEAHVQKEELPNTQEKRVSEECDSTLISTEEESKIPKIPSERPKRRAPPPVPKKPSSRIAAFQEMLQKQQQQDLHNNGNSSATTASADIAKKHTDSSITSDTTKADFTSKLNGLFALPGMVNPGQLPPSLEKKLSSPDTESKLGPQDQSQAKTGPLGGTRRGRGPRGRKLPSKVASVEKIEEDDNTNKIEIFNNWNVSSSFSKEKVLIDTTPGEQAERALDEKSKSIPEEQREQSPNKMEAALCPFELDEKEKLPANAESDPLSQLPQTNAVGNRKAISEESLSPSEAIANRDQNDTTEIQEQQMEDQMEVDMERELSGGYEDVDSALHSEEASFHSL
For the molecule B3, the binding result in experiment [2] is “binds”.

B4: TAP-tagged Scp1 (protein, UniProt Q08873 1-200)
chain: MSYDKKADVTSLDEDLRQLRESKFSPEAIQNIKIWVYKSVLKEIAPPGDLLECLKDGTVLCKLANILYEADTGEANHISWKSSKMPFVQMDQISQFLSFSRKYGVPEDELFQTIDLFEKKDPAIVFQTLKSLSRYANKKHTDRFPVLGPQLSTKKPRPPVKSKPKHLQDGTGWSTFEYGYMKGASQATEGVVLGQRRDIV
Take B4: the binding result in experiment [1] is reported as “binds”.

B5: Abp1 (protein, UniProt P15891 1-592)
chain: MALEPIDYTTHSREIDAEYLKIVRGSDPDTTWLIISPNAKKEYEPESTGSSFHDFLQLFDETKVQYGLARVSPPGSDVEKIIIIGWCPDSAPLKTRASFAANFAAVANNLFKGYHVQVTARDEDDLDENELLMKISNAAGARYSIQTSSKQQGKASTPPVKKSFTPSKSPAPVSKKEPVKTPSPAPAAKISSRVNDNNDDDDWNEPELKERDFDQAPLKPNQSSYKPIGKIDLQKVIAEEKAKEDPRLVQKPTAAGSKIDPSSDIANLKNESKLKRDSEFNSFLGTTKPPSMTESSLKNDDDKVIKGFRNEKSPAQLWAERKAKQNSGNAETKAEAPKPEVPEDEPEGEPDVKDLKSKFEGLAASEKEEEEMENKFAPPPKKSEPTIISPKPFSKPQEPVKAEEAEQPKTDYKKIGNPLPGMHIEADNEEEPEENDDDWDDDEDEAAQPPLPSRNVASGAPVQKEEPEQEEIAPSLPSRNSIPAPKQEEAPEQAPEEEIEEEAEEAAPQLPSRSSAAPPPPPRRATPEKKPKENPWATAEYDYDAAEDNELTFVENDKIINIEFVDDDWWLGELEKDGSKGLFPSNYVSLGN
For the molecule B5, the binding entry in experiment [3] is “no binding”; in experiment [4], “binds”; in experiment [5], “binds”; in experiment [6], “binds”; in experiment [7], “binds”.
